Data from article PMC3900477.

Sequences of proteins named here, by UniProt entry; tags and fusion partners are left off. A change or cut given only in a name is not applied to a line headed by its entry.
UniProt Q9ZPY8: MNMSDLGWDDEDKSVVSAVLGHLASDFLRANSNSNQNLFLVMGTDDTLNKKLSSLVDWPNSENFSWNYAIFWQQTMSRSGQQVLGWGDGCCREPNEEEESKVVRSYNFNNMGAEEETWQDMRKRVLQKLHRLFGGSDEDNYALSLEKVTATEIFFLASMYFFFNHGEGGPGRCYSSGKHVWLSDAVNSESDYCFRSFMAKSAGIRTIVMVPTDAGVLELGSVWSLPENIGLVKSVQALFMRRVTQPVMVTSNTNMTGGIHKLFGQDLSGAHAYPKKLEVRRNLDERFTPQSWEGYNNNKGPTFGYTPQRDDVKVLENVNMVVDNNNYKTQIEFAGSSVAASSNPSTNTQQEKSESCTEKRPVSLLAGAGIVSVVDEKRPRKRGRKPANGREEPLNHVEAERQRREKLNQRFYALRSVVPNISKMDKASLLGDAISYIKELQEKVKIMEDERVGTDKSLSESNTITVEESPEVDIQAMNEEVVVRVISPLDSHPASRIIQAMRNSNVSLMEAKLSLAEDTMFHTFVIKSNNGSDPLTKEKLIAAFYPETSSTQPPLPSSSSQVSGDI
UniProt O23487: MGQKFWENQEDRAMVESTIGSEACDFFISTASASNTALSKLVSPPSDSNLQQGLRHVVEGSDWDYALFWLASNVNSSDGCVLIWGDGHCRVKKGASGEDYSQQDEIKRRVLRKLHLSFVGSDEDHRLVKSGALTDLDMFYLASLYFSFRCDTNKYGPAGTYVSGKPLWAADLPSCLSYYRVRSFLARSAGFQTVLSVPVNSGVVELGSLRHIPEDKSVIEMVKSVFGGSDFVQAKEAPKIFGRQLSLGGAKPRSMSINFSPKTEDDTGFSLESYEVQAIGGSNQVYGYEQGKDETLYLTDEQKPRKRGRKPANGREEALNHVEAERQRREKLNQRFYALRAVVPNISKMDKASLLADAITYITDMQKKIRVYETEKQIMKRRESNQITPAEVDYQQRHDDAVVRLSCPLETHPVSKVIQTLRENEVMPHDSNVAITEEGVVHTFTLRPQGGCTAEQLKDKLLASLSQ
UniProt Q9LNJ5: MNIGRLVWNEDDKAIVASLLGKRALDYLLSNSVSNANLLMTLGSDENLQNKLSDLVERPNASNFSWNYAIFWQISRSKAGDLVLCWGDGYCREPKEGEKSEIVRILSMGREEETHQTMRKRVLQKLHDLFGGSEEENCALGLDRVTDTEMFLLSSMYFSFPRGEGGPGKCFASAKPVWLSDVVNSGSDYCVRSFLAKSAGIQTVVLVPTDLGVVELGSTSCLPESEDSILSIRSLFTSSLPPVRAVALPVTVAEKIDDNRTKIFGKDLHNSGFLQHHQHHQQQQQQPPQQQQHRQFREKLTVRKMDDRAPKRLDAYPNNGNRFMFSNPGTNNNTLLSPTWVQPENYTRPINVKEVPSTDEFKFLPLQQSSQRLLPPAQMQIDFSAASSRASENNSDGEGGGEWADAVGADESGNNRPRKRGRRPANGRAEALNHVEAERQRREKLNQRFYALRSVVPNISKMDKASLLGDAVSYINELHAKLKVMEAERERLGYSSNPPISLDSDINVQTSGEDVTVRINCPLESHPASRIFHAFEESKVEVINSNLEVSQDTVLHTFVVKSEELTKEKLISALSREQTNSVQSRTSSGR
UniProt Q9S7M2: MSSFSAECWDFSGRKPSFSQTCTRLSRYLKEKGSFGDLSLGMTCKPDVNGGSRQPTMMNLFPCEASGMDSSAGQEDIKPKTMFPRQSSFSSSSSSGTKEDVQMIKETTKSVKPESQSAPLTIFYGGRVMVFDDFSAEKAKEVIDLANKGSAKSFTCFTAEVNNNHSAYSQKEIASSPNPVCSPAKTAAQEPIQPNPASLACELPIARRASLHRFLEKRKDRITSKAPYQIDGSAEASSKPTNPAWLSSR
UniProt Q9FIP9: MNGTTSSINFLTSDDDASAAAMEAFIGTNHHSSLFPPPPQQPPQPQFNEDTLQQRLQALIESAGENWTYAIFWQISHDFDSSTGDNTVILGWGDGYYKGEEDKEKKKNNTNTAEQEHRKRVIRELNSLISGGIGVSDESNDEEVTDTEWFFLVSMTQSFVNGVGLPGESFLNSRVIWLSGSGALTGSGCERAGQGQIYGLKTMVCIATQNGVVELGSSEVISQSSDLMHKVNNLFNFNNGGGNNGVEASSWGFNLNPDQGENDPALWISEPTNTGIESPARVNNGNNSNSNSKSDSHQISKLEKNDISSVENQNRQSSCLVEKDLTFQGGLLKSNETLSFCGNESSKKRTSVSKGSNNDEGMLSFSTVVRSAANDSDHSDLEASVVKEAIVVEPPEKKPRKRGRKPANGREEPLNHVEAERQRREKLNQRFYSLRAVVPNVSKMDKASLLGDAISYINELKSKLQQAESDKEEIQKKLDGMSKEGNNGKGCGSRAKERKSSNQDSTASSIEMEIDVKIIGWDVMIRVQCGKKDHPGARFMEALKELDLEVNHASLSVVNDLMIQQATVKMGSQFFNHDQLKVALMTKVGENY
UniProt Q9SV55: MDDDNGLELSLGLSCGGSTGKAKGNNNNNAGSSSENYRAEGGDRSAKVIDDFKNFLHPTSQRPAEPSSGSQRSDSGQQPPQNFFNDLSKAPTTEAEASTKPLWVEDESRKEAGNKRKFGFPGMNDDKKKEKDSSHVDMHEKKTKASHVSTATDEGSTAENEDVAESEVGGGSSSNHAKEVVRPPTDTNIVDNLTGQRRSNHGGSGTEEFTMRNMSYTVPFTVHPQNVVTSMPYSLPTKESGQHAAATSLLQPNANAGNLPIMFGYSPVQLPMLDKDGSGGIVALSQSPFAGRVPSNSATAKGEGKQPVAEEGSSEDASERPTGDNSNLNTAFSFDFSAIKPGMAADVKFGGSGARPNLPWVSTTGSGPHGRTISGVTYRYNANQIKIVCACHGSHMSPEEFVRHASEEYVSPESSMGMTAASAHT
UniProt Q9C5K8: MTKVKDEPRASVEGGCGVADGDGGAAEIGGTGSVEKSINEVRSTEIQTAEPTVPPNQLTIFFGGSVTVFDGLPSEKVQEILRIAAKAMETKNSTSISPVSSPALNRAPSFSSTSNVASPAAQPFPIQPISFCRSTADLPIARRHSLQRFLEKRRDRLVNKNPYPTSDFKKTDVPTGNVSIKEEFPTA
UniProt O49687: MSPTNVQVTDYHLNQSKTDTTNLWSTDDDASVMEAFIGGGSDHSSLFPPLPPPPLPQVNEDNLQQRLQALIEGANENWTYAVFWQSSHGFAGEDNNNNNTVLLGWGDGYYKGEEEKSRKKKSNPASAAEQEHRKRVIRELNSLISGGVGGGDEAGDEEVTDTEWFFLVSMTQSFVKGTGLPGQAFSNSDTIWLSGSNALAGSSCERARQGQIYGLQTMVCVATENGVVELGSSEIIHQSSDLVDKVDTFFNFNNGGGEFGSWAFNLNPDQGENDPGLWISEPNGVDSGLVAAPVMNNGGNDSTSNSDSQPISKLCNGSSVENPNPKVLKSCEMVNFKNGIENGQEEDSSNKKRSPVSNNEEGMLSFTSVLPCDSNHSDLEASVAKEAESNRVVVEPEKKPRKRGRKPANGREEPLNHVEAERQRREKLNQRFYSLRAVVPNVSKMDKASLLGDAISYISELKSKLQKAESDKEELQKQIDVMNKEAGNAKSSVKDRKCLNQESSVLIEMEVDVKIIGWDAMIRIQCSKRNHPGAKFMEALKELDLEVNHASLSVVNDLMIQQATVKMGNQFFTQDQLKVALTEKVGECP

How the values were obtained:
Test in all cases: affinity purification with mass spectrometry; tandem affinity purification (GS tag) from Arabidopsis PSB-D cell suspension cultures expressing N- or C-terminal TAP fusions of the bait; MALDI TOF/TOF; background subtracted
[1] = target: bHLH017-TAP (Arabidopsis thaliana) (UniProt Q9ZPY8)
[2] = target: bHLH003-TAP (Arabidopsis thaliana) (UniProt O23487)
[3] = target: bHLH013-TAP (Arabidopsis thaliana) (UniProt Q9LNJ5)

binding [1] | binding [2] | binding [3] | Molecule
binds |  |  | JAZ2 (prey in TAP) (from UniProt Q9S7M2)
no binding | no binding | no binding | MYC3 (from UniProt Q9FIP9 1-592)
binds |  |  | NINJA (prey in TAP) (from UniProt Q9SV55 1-425)

Further lines, the molecule ahead of its results:

Molecule | binding [1] | binding [2] | binding [3]
JAZ12 (prey in TAP) (from UniProt Q9C5K8) | binds |  | 
MYC4 (from UniProt O49687 1-589) | no binding | no binding | no binding
bHLH003 (prey in TAP) (from UniProt O23487) | binds |  | binds
bHLH013 (prey in TAP) (from UniProt Q9LNJ5) |  | binds | 
JAZ11 (prey in TAP) (protein, UniProt Q9M246 1-238) MAEVNGDFPVPSFADGTGSVSAGLDLLVERSIHEARSTEPDASTQLTIIFGGSCRVFNGVPAQKVQEIIRIAFAGKQTKNVTGINPALNRALSFSTVADLPIARRRSLQRFLEKRRDRSTKPDGSMILPSQLTIIFGGSFSVFDGIPAEKVQEILHIAAAAKATETINLTSINPALKRAISFSNASTVACVSTADVPIARRRSLQRFFEKRRHRFVHTKPYSATTSEADKNETSPIVT | binds |  | 

No constants are given. Whether binding was seen depends on the method and setting. Binding seen in cells or lysates may run through a third protein. A yes stands for co-enrichment or nearness to the bait. Other partners may have been found. A no says only that the protein was not detected with the bait.
